These results are taken from patent US20120135880A1.

Sequences of proteins named here, by UniProt entry; tags and fusion partners are left off. A change or cut given only in a name is not applied to a line headed by its entry.
UniProt Q9HCN6: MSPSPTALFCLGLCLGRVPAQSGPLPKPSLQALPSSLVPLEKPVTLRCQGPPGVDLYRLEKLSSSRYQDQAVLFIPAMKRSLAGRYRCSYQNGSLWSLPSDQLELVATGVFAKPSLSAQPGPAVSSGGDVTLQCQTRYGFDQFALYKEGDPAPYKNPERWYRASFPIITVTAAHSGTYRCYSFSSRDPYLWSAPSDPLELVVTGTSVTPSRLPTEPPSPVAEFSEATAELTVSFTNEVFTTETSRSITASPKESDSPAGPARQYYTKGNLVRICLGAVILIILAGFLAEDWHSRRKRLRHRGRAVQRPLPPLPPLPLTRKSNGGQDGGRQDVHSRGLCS

These are yes or no findings as the source states them, for the method shown. Some results given as binding are weak or reduced against the parent protein; the word gives no strength.

Test [1] has as its target T1, collagen-related peptide (CRP), non-crosslinked (POG)10 triple helix.
T1 sequence (peptide, O is hydroxyproline (second residue of every POG triplet)): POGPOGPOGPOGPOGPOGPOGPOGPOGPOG
The experiment in a line: sedimentation velocity AUC size distributions, legend of FIG. 3B.

Test [2] has as its target collagen-binding domain (CBD) of human glycoprotein VI (GPVI), residues Q1-T183, recombinant, refolded from E. coli inclusion bodies (human) (UniProt Q9HCN6). Description: analytical ultracentrifugation (self-association of the GPVI CBD); in solution, analytical ultracentrifugation, up to 100 µM; construct lacks the stalk region.
The target of test [3] is T1, collagen-related peptide (CRP), non-crosslinked (POG)10 triple helix. The experiment in a line: sedimentation velocity and equilibrium AUC of 1:1, 4:1 and 8:1 GPVI:CRP mixtures; 1:1 complex in the first sample, higher-order complexes in the others; two or three GPVI molecules per CRP triple helix (data not shown).
Test [4] has the same target. The experiment in a line: sedimentation velocity analytical ultracentrifugation; 1:1, 4:1 and 8:1 GPVI:CRP mixtures (10, 40, 80 µM GPVI; the text gives 10 µM CRP for the parallel sedimentation equilibrium mixtures), with GPVI alone and the 1:1 complex of panel A for comparison.

On to “collagen-binding domain (CBD) of human glycoprotein VI (GPVI), residues Q1-T183, recombinant, refolded from E. coli inclusion bodies (from UniProt Q9HCN6 21-203) (receptor)”, for which the binding result in test [1] is on record as “binds”; in test [2], “no binding (tested: 100 µM)”; in test [3] it was “binds”; in test [4], “binds”.
